Data reported in EP2876156A1, “New enzymes and method for preparing hydroxylated L-lysine or L-ornithine and analogs thereof” (COMMISSARIAT A L'ENERGIE ATOMIQUE ET AUX ENERGIES …, priority 2013, dated 2015).

Tests used:
Format in all cases: biochemical
[1] = molecular target: T1, ENZ3 SEQ ID NO:3 (Chitinophaga pinensis, UniProt C7PLM6); conditions: pH 7
T1 construct: His6 (hexahistidine, inserted after the initial methionine) (N); made in house; host or cells: E. coli BL21(DE3) plysE
T1 sequence (C7PLM6 1-382): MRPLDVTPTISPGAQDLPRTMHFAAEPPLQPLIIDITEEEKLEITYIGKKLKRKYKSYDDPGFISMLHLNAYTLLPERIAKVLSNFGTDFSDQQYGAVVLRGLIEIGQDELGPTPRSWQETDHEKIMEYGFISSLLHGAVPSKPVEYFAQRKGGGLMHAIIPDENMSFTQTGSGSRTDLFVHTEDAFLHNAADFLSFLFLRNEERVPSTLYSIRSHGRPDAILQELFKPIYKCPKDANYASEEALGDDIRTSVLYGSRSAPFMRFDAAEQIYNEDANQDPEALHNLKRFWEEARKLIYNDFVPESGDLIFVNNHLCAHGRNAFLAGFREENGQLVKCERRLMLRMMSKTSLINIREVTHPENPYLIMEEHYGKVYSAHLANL
Method: (§1) Enzymatic reaction medium (0.2 µmole, leq.), borate buffer 0,2M pH 7.7 (80 µL) and Fmoc-Cl solution7.5 mM in acetone (100 µL, 0.75 µmole, 3.75 eq) were hand shaked in a closed 1.50 mL eppendorf for one minute. The aqueous layer was extracted with petroleum ether (3*1 mL) to eliminate excess of Fmoc-Cl. 70 µL of the aqueous phase were withdrawn, diluted with 70 µL of acetonitrile and injected into the HPLC. For substrates with two amine functions, 100 µL of Fmoc-Cl solution 15 mM were used.
(§2) Conditions for HPLC analysis: Atlantis® T3 (3 µm 4.5*150 mm) at 35°C with the gradient 50-86% eluent B (MeCN + 0.1% TFA) and eluent A (H2O + 0.1% TFA) in 20 min at 1 mL/min.
(§3) Enzymes (0.08 mg/mL) were screened against substrates (molar ratio α-ketoglutarate/substrate 15/10) in Hepes buffer 50 mM pH 7,5, with Mohr's salt at 1mM and without sodium ascorbate, at room temperature for three hours. The potential conversions of the substrates were determined by HPLC after Fmoc-Cl derivatization as section III here above.

[2] = molecular target: T2, ENZ2 SEQ ID NO:2 (Flavobacterium johnsoniae, UniProt A5FF23); conditions: pH 7
T2 construct: His6 (hexahistidine, inserted after the initial methionine) (N); made in house; host or cells: E. coli BL21(DE3) plysE
T2 sequence (A5FF23 1-370): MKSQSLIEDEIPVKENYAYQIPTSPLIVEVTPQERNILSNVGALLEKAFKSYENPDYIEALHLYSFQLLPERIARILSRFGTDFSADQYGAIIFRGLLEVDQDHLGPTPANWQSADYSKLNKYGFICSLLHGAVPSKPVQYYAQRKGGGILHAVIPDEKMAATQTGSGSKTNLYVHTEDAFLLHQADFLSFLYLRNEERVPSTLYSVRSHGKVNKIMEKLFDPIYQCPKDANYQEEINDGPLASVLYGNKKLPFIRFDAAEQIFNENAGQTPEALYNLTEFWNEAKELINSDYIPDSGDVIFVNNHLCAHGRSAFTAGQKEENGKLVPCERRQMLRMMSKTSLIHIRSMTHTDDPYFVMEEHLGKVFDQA
Method: as §1, §2, §3

[3] = molecular target: T3, ENZ1 SEQ ID N°1 (Catenulispora acidiphila, UniProt C7QJ42); assay: Substrate selectivity screening of hydroxylase (conversion by HPLC after Fmoc-Cl derivatization); conditions: pH 7
T3 construct: His6 (hexahistidine, inserted after the initial methionine) (N); made in house; host or cells: E. coli BL21(DE3) plysE
T3 sequence (C7QJ42 1-358): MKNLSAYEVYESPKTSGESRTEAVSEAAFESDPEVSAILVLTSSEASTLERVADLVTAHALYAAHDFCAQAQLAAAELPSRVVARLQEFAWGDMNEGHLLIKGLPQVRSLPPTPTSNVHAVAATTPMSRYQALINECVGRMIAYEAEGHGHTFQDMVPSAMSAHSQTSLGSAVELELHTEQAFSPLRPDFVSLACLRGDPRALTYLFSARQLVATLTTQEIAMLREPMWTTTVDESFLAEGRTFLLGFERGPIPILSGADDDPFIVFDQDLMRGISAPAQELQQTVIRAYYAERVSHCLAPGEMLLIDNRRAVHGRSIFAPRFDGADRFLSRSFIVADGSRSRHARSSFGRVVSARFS
Method: as §1, §2, §3

[4] = molecular target: T4, ENZ4 SEQ ID NO:4 (Catenulispora acidiphila, UniProt C7Q942); assay: as above; conditions: pH 7
T4 construct: His6 (hexahistidine, inserted after the initial methionine) (N); made in house; host or cells: E. coli BL21(DE3) plysE
T4 sequence (C7Q942 1-343): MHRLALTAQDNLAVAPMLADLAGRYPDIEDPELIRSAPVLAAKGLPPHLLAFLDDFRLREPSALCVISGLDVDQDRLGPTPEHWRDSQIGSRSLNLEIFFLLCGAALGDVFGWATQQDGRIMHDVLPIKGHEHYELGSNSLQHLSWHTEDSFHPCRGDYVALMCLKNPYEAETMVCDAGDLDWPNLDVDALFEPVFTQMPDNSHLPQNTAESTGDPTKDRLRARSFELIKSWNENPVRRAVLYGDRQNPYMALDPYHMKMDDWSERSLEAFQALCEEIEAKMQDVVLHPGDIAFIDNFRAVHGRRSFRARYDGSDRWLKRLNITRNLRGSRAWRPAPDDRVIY
Method: as §1, §2, §3

[5] = molecular target: T4, ENZ4 SEQ ID NO:4; assay: Enzymatic hydroxylation of L-ornithine and L-arginine, 10 mL scale, conversion by HPLC; conditions: ENZ4 0.595 mg/mL, without sodium ascorbate, room temperature, 18h; HPLC after Fmoc-Cl derivatization (protocol A)
Method: 70 µL of the aqueous phase were withdrawn, diluted with 70 µL of acetonitrile and injected into the HPLC. […]
as §2
Enzymatic reaction medium (0.2 µmole, 1eq), 1% FDAA solution in acetone (50 µL, 1.5 µmoles, 7.5eq) and NaHCO3 solution 1M (10 µl, 10 µmoles, 50 eq.) were stirred in a closed 1.50 mL eppendorf at 43°C, 1000 rpm for 90 minutes. HCl 1M (25 µL) was added. 100 µL were withdrawn, filtered and injected into the HPLC. For substrates with two amine functions, 120 µL of 1% FDAA in acetone were used. […]
Enzymatic reaction was carried out in 250 mL glass erlenmeyer flask for a total volume of 4*10 mL. […] The conversion of L-lysine into 3-hydroxy-L-lysine (94%) was determined by HPLC after derivatization with Fmoc-Cl according to protocol A.
The protocol for L-ornithine hydroxylation was the same as that described above for the hydroxylation of L-lysine by ENZ1 except that the enzyme concentration was 0.595 mg/mL for ENZ4 and the reaction was carried without sodium ascorbate. The conversion of L-ornithine into hydroxylated product (68%) was determined by HPLC after derivatization with Fmoc-Cl according to protocol A. […]

| Structure (SMILES) | potential conversions of the substrates, ENZ3 SEQ ID NO:3 [1] | potential conversions of the substrates, ENZ2 SEQ ID NO:2 [2] | potential conversions of the substrates, ENZ1 SEQ ID N°1 [3] | potential conversions of the substrates, ENZ4 SEQ ID NO:4 [4] | conversion of L-ornithine into hydroxylated product [5] [%] |
| --- | --- | --- | --- | --- | --- |
| NCCC[C@H](N)C(=O)O [L-ornithine] | negative | negative | negative | positive | 68 |
| NCCC[C@@H](N)C(=O)O [D-ornithine] | negative | negative | negative | negative | – |
